At least one compound was matched to its structure with a doubt left.
Tested on: BMDCs and JAWSII DCs
Assay: BMDC and JAWSII DC stimulation (maturation markers, flow cytometry)
Format: cell-based, mouse
Settings: 24 h

SMILES: C[C@H](CCC(=O)O)[C@H]1CC[C@H]2[C@@H]3CC[C@@H]4C[C@H](O)CC[C@]4(C)[C@H]3CC[C@]12C [LCA, lithocholic acid, reference compound]
- maturation of DCs: stimulates BMDC maturation in a dose dependent manner

Reference: patent US20240180849A1, “IMMUNOFUNCTIONAL CARRIER, METHODS OF USES, AND COMPOSITION MATTERS AS AN ANTITUMOR IMMUNOTHERAPY” (priority 2021, published 2024)
